The assay addresses T1, ErbB2 receptor (UniProt P04626 23-1255).
T1 construct: Whole endogenous receptor from cell extracts, immunoprecipitated with an ErbB2 antibody
Nature of the assay: immunofluorescence microscopy of transduced cells.

These are yes or no findings as the source states them, for the method shown. Some binding calls cover weakened binding; strength is not graded here.

B1: mt bTrx-All-7 (designed binder)
chain: MSDKIIHLTDDSFDTDVLKADGAILVDFWAEWSGPPLNFYRHGFLPNAVMASMLEVGPWFELLGPCGLAGHPLSSLRIGPSKMIAPILDEIADEYQGKLTVAKLNIDQNPGTAPKYGIRGIPTLLLFKNGEVAATKVGALSKGQLKEFLDANLA
notes: Purified recombinant protein; Largely monomeric; also called All-7 aptamer in mutated bTrx (mt); All-7 in the mutated scaffold; not shown: Flag-tag, one or two His-tags and a 9R protein transduction domain
Consider B1, for which the binding entry is on record as “binds”.

Source of the values: patent EP2060581A1 (Chemotherapeutisches Forschungsinstitut Georg-Speyer-Haus, dated 2009).
